Assay results: ChEMBL document CHEMBL4837260, “Structure-Guided Design of a Small-Molecule Activator of Sirtuin-3 that Modulates Autophagy in Triple Negative Breast Cancer” (J Med Chem, 2021)

Tests used:
Type in all cases: functional, cell-based
HL-60 = test: Antiproliferative activity against human HL-60 cells measured after 24 hrs by MTT assay; settings: HL-60, 24 h
U-937 = test: Antiproliferative activity against human U-937 cells measured after 24 hrs by MTT assay; settings: U-937, 24 h
MCF7 = test: Antiproliferative activity against human MCF7 cells measured after 24 hrs by MTT assay; settings: MCF7, 24 h

- IC50 (HL-60): 5.27 µM
- IC50 (U-937): 9.31 µM
- IC50 (MCF7): > 50 µM
SMILES: CCCCc1oc2ccccc2c1C(=O)c1cc(I)c(OCCN(CC)CC)c(I)c1 [AMIODARONE]
